Assay results: PubChem BioAssay AID2662 (National Center for Advancing Translational Sciences (NCATS), 2010)
The campaign covered roughly 290,000 compounds. About 110 (0.038%) were called active. The shares of active, inactive and inconclusive entries below differ from those in the screen. The call rests on the fitted dose curve; in most records, active means well fitted inhibition curve with a large enough effect in the polarisation, with a control signal flat (not every such curve was filed as active); inconclusive means small, poorly fitted or top-dose-only effect, or effect the other way, or a change in a side signal; inactive means no such curve, though single readings can be large or run the other way; the % refers to the polarisation. Where the call is inconclusive, the potency comes from a doubtful curve fit. “Side channel” marks fits to a control or component signal instead of the main read-out.

Protein sequences, listed by entry. Tags and fused reporters are not part of them.
UniProt Q03164, whole entry, looked up: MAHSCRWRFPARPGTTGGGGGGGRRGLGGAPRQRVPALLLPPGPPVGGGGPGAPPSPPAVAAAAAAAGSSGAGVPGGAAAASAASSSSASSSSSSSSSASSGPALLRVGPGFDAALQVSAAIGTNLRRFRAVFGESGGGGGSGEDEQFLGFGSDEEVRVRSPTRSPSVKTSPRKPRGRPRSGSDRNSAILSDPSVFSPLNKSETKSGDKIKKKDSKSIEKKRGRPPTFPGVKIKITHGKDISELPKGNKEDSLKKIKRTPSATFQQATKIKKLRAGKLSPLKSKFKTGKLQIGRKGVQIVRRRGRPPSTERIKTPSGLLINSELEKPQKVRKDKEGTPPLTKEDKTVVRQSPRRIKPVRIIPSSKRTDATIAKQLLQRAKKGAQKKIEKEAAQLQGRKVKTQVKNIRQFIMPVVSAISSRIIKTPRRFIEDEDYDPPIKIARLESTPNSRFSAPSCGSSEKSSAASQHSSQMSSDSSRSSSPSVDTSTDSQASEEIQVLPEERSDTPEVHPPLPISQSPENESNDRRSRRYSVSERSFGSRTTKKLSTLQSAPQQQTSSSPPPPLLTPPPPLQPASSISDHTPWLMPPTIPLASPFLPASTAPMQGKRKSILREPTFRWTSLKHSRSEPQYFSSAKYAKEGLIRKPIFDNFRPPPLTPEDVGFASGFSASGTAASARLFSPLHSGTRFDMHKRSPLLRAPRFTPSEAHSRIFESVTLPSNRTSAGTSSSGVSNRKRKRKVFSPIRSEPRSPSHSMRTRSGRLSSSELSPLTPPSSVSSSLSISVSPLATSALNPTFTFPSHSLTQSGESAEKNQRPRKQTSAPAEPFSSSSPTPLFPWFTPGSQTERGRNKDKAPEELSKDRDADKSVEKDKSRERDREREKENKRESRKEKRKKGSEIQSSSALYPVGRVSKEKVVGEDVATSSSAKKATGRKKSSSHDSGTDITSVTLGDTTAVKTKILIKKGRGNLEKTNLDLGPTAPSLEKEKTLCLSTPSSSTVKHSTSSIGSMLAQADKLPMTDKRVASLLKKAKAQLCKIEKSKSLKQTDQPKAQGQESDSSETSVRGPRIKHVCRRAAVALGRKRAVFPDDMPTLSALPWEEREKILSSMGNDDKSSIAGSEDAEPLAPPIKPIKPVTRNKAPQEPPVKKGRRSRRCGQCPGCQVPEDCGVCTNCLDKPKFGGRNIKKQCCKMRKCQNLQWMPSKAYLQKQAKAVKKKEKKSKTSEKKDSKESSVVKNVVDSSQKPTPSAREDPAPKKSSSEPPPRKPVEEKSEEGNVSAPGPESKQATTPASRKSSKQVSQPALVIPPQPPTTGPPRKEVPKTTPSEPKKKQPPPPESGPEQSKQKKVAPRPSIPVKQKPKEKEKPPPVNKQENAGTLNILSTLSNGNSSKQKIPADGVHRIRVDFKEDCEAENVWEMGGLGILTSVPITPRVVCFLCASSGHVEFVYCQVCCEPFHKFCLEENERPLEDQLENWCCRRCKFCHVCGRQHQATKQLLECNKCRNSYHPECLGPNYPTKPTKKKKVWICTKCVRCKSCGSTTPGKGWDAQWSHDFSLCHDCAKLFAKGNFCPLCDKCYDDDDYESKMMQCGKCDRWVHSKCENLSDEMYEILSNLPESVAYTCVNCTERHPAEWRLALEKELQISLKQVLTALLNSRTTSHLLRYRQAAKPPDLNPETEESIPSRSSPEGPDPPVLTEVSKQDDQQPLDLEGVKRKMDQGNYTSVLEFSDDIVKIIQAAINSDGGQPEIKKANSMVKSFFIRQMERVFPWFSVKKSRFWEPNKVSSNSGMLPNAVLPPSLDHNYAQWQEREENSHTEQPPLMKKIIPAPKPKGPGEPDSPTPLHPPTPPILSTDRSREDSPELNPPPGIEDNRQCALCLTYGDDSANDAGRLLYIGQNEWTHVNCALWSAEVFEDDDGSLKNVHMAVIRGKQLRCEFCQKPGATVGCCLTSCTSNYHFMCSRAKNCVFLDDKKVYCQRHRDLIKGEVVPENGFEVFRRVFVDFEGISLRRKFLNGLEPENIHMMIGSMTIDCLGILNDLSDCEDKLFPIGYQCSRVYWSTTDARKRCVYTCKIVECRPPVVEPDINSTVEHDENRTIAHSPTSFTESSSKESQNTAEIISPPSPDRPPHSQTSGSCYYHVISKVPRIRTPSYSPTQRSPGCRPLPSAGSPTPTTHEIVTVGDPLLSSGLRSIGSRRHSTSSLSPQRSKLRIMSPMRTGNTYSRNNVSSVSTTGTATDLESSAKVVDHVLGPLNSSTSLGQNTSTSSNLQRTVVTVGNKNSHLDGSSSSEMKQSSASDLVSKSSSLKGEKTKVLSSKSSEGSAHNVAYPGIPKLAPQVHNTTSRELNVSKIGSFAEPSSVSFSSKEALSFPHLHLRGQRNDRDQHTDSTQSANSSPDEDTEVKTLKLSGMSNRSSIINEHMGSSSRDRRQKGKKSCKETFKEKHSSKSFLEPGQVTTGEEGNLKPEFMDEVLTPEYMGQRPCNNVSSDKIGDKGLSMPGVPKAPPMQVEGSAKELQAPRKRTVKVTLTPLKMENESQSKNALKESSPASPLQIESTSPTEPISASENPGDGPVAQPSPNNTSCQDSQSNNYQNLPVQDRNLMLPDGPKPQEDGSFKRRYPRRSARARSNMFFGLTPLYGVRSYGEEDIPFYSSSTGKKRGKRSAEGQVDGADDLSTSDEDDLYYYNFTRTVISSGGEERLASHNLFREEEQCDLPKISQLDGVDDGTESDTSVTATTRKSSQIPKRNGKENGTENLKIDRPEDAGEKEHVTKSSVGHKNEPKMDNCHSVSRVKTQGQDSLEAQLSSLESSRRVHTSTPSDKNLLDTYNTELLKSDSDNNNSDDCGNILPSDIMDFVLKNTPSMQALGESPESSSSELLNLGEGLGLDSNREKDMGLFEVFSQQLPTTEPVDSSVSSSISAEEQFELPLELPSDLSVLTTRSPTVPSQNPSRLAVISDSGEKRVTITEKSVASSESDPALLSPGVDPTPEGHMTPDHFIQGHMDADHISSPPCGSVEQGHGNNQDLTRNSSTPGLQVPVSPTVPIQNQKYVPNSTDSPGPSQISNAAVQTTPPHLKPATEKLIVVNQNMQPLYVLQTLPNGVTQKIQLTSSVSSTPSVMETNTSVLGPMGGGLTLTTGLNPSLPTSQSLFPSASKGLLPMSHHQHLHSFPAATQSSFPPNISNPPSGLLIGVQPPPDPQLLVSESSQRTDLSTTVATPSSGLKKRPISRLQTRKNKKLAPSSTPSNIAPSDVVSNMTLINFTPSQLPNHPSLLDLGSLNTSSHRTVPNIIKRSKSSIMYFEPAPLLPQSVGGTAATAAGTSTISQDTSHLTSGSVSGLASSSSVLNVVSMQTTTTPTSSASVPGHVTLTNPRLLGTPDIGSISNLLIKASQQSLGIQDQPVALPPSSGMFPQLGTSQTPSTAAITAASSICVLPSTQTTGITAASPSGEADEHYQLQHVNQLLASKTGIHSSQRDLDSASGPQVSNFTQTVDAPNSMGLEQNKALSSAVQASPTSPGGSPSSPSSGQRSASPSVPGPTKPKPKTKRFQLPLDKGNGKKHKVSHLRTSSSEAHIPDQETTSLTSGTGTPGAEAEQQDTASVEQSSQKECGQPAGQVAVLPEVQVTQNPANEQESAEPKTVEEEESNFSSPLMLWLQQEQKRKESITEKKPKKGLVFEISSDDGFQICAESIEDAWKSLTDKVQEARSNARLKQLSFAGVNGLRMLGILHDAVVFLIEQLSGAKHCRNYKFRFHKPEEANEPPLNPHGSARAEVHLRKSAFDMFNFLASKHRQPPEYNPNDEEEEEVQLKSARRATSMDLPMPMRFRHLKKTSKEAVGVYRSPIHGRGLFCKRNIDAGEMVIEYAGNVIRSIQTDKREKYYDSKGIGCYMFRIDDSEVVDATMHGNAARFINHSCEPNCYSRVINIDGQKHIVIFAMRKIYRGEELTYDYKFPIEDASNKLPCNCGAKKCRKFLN

The compounds below were run against Histone-lysine N-methyltransferase 2A (Homo sapiens) (UniProt Q03164) (assay: qHTS Fluorescence Polarization Assay for Inhibitors of MLL CXXC domain - DNA interaction). Conditions: MLL-CXXC / FITC-HOXA9 DNA fluorescence polarization; activity change, negative = inhibition: at 115 µM (top of the series).
Method in brief: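 Fluorescence polarization: 7 uM MLL-CXXC (stock) preincubated 5 min with compounds, then 50 nM fluorescein-HOX-A9 DNA (stock) added; 30 min ambient. Buffer 50 mM Tris-HCl pH 7.5, 50 mM NaCl, 1 mM DTT, 0.05% BSA.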
Potency means the concentration at half of the fitted maximal effect.

| Compound | activity change, negative = inhibition | Potency |
| --- | --- | --- |
| CCCCCCC1NC(C(=O)O)CS1 (stereo not drawn) | inactive: -7.38% | – |
| Cc1cc(N/N=C/c2ccc(O)cc2)c2cccc(C)c2n1 | – | inconclusive: 10 µM [quencher, side channel, partial curve] |
| Nc1c(C(=O)NC2CCCC2)sc2nc(-c3cccs3)ccc12 | – | inconclusive: 31.6 µM [fluorescent, side channel, partial curve] |
| O=C(Cc1ccc(Cl)cc1)Nc1ccc(NC(=O)c2ccccc2)cc1 | inactive: 4.17% | – |
| COc1ccc(OC)c(NC(=O)c2oc3c(c2C)C(O)CC(C)(C)C3)c1 (stereo not drawn) | – | inconclusive: 15.8 µM [fluorescent, side channel, single point] |
| O=[N+]([O-])c1ccc(N(c2ccccc2)c2ccccc2)cc1 | – | inconclusive: 70.8 µM [fluorescent, side channel, single point] |
| COc1cccc(NC(=O)Cn2c(=O)oc3cc(S(=O)(=O)N4CCCC4)ccc32)c1 | inactive: -1.05% | – |
| CN(Cc1ccccc1F)C(=O)c1ccc(Oc2ccccc2)cc1 | – | inconclusive: 44.7 µM [fluorescent, side channel, partial curve] |
| C=CCSc1nnc2c(n1)OC(c1cccnc1)N(C(C)=O)c1ccccc1-2 (stereo not drawn) | – | inconclusive: 39.8 µM [fluorescent, side channel, single point] |
| CCOc1ccc2nc(NC(=O)CSc3nc4ccccc4c(=O)n3Cc3ccco3)sc2c1 | inactive: 37% | – |
| O=C(N=c1ccn(-c2nc3ccccc3nc2NS(=O)(=O)c2ccc(Cl)cc2)cc1)c1ccccc1Cl | – | inconclusive: 63.1 µM [fluorescent, side channel, single point] |
| O=S(=O)(c1ccc2c(c1)OCCO2)N1CCN(c2nc3ccccc3s2)CC1 | inactive: 55.1% | – |
| O=C1CC(Nc2ccc(N3CCOCC3)cc2)C(=O)N1c1ccccc1 (stereo not drawn) | inactive: 1.3% | – |
| CCCCCC(=O)N1CCN(CCN=CC2=C(O)CC(c3ccco3)CC2=O)CC1 (stereo not drawn) | inactive: -6.55% | – |
| O=[N+]([O-])c1ccc(Sc2cccc[n+]2[O-])c2nonc12 | – | inconclusive: 35.5 µM [inhibitor, single point] |
| COc1ccc(N(C)S(=O)(=O)c2cccc(C(=O)OCC(=O)NCc3ccccc3OC)c2)cc1 | – | inconclusive: 31.6 µM [inhibitor, partial curve, poor fit] |
| C=CCn1c(SCCOc2ccc(OC)cc2)nnc1C(C)NC(=O)Cc1ccc(OC)cc1 (stereo not drawn) | inactive: 2.39% | – |
| CCOC(=O)c1ccc2nc(Nc3nc4ccc(F)cc4s3)sc2c1 | inactive: 1.87% | – |
| COc1ccc(C2Nc3ccccc3C(=O)N2Cc2ccccc2)cc1CSc1ccccn1 (stereo not drawn) | inactive: -3.4% | – |
| CC1=NOC(=O)/C1=C\c1ccc(-c2cccc(Cl)c2)o1 | – | inconclusive: 12.6 µM [inhibitor, full curve] |
| Brc1ccc(NC(c2ccccc2)c2ccncc2)cc1 (stereo not drawn) | – | inconclusive: 70.8 µM [fluorescent, side channel, single point] |
| Cc1cccc(OCC2=NS(=O)(=O)c3ccccc3N2)c1 | – | inconclusive: 10 µM [quencher, side channel, full curve, poor fit] |

| Compound | activity change, negative = inhibition | Potency |
| --- | --- | --- |
| O=C(Cc1ccccc1)c1c[nH]c(C(=O)NCCCn2ccnc2)c1 | – | inconclusive: 39.8 µM [fluorescent, side channel, single point] |
| CCOc1ccccc1NC(=O)c1cc(=O)c2ccccc2o1 | inactive: -1.82% | – |
| O=C1NCCCC2c3c(cc(Br)c(O)c3Br)OC12N1CCOCC1 (stereo not drawn) | inactive: -0.0165% | – |
| Cc1ccc(C)c(NC(=S)Nc2cccc3cnccc23)c1 | – | inconclusive: 35.5 µM [fluorescent, side channel, single point] |
| Cc1ccc(C)c(-c2cc(C(=O)Nc3cccnc3)c3ccccc3n2)c1 | – | inconclusive: 12.6 µM [fluorescent, side channel, full curve] |
| CCc1ccc(Nc2n[n+](-c3ccccc3)c(-c3c(Cl)cccc3Cl)s2)cc1 | – | inconclusive: 39.8 µM [quencher, side channel, partial curve] |
| CN1CCc2c(sc3c2C(=O)NC(c2ccccn2)N3)C1 (stereo not drawn) | – | inconclusive: 39.8 µM [inhibitor, single point] |
| CC1=Nc2ccccc2/C1=C/c1sc(=N)n(-c2nccs2)c1O | – | inconclusive: 1.26 µM [fluorescent, side channel, full curve] |
| CCCCCn1c(NC(=O)c2ccco2)c(S(=O)(=O)c2ccc(C)cc2)c2nc3ccccc3nc21 | inactive: -5.4% | – |
| CCSc1nnc(N2C(=O)c3ccc(C(=O)c4ccc(C(=O)O)cc4)cc3C2=O)s1 | – | inconclusive: 35.5 µM [inhibitor, single point] |
| CCNc1nc2c(c(=O)n(C)c(=O)n2C)n1Cc1ccc(Cl)cc1 | inactive: -9.54% | – |
| O=C1C(NS(=O)(=O)c2cccs2)=C(N2CCN(Cc3ccccc3)CC2)C(=O)c2ccccc21 | inactive: 10.7% | – |
| Cc1ccc(NC(=O)CN(C)S(=O)(=O)c2ccc3c(c2)n(C)c(=O)c(=O)n3C)c(C)c1 | inactive: 0.0625% | – |
| Nc1ccc(N)c(C(=O)O)c1 | – | inconclusive: 14.1 µM [quencher, side channel, partial curve] |
| Cc1ccc(-n2c(SCC(=O)Nc3ccc4c(c3)OCO4)nnc2-c2cccs2)cc1 | inactive: 8.05% | – |
| COc1cccc(NC(=O)C2CCC(CNC(=O)[C@@H]3Cc4ccccc4CN3)CC2)c1 (stereo partly drawn) | – | inconclusive: 17.8 µM [quencher, side channel, partial curve] |
| Cc1cc(-c2nnc(SCC(=O)Nc3ccc(S(N)(=O)=O)cc3)n2N)n[nH]1 | inactive: 12.2% | – |
| COc1ccccc1/C=C(/C#N)C(=O)O | – | inconclusive: 11.2 µM [inhibitor, full curve] |
| CCOc1ccc(S(=O)(=O)Nc2c(C)n(C)n(-c3ccccc3)c2=O)cc1 | inactive: 13.1% | – |
| CCOc1cc(Br)c(/C=C2/C(=O)N(C)C(=S)N2CC(=O)OC)cc1OC | – | inconclusive: 31.6 µM [inhibitor, partial curve] |
| Cc1cc(C)n(CC(=O)N/N=C/c2cc([N+](=O)[O-])ccc2O)n1 | – | inconclusive: 15.8 µM [quencher, side channel, single point] |

Among those listed so far, these contain bromine:

| Compound | activity change, negative = inhibition | Potency |
| --- | --- | --- |
| Brc1ccc(NC(c2ccccc2)c2ccncc2)cc1 (stereo not drawn) | – | inconclusive: 70.8 µM [fluorescent, side channel, single point] |
| O=C1NCCCC2c3c(cc(Br)c(O)c3Br)OC12N1CCOCC1 (stereo not drawn) | inactive: -0.0165% | – |
| CCOc1cc(Br)c(/C=C2/C(=O)N(C)C(=S)N2CC(=O)OC)cc1OC | – | inconclusive: 31.6 µM [inhibitor, partial curve] |
